Source: the supplement of paper PMC4604168 (melanoma cell lines)
Some of the results follow. Repeats are few or missing, and single values can be far off.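 Imaging used 1,536-well plates; nuclei positive for cleaved PARP by antibody were divided by total DNA-stained nuclei to yield the apoptosis fraction. Doses for screening kept most cells viable, and cell lines differ markedly in resting and induced cleaved-PARP levels.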

How the values were obtained:
Experiment in all cases: cleaved PARP positive nuclei fraction relative to DMSO control; melanoma cells; higher = more apoptosis
Details in all cases: library dose: low library concentration; 72 h
[1] = tested on: CBRC034 (line from a melanoma biopsy)
[2] = tested on: COLO792
[3] = tested on: COLO800
[4] = tested on: COLO829
[5] = tested on: G361
[6] = tested on: IPC-298
[7] = tested on: IST-MEL1
[8] = tested on: LB2518-MEL
[9] = tested on: LOXIMVI
[10] = tested on: MEL-HO

Structure (SMILES) | cleaved PARP positive nuclei fraction [1] [%] | cleaved PARP positive nuclei fraction [2] [%] | cleaved PARP positive nuclei fraction [3] [%] | cleaved PARP positive nuclei fraction [4] [%] | cleaved PARP positive nuclei fraction [5] [%] | cleaved PARP positive nuclei fraction [6] [%] | cleaved PARP positive nuclei fraction [7] [%] | cleaved PARP positive nuclei fraction [8] [%] | cleaved PARP positive nuclei fraction [9] [%] | cleaved PARP positive nuclei fraction [10] [%]
C[C@]12O[C@H](C[C@]1(O)CO)n1c3ccccc3c3c4c(c5c6ccccc6n2c5c31)CNC4=O [Lestaurtinib] + COCC[n+]1c2c(n(Cc3cnccn3)c1C)C(=O)c1ccccc1C2=O [YM155] (first compound 0.004 µM, partner dose 0.0004 µM) | 62.9 | 163 | 128 | 104 | 64.2 | 226 | 59.3 | 107 | 55.5 | 52.1
C[As](C)SC[C@H](NC(=O)CC[C@H](N)C(=O)O)C(=O)NCC(=O)O [Darinaparsin] + Cn1cc(/C=C2\C(=O)Nc3cccnc32)c2ccccc21 [GW441756] (first compound 0.4 µM, partner dose 0.4 µM) | 84.7 | 83.3 | 74.8 | 108 | 130 | 222 | 43.3 |  | 31.4 | 
C[As](C)SC[C@H](NC(=O)CC[C@H](N)C(=O)O)C(=O)NCC(=O)O [Darinaparsin] + COc1ccc(-c2ccc3c(N4CCOCC4)nc(N4C[C@@H](C)O[C@@H](C)C4)nc3n2)cc1CO [KU0063794] (first compound 0.4 µM, partner dose 0.02 µM) | 89.9 | 116 | 99.2 | 73.2 | 173 | 148 | 161 |  | 64.6 | 
O=C(Nc1cc(C(F)(F)F)cc(C(F)(F)F)c1)c1cc(Cl)ccc1O + Cc1cc(SCc2sc(-c3ccc(C(F)(F)F)c(F)c3)nc2C)ccc1OCC(=O)O [GW0742] (first compound 0.016 µM, partner dose 2 µM) |  | 117 | 61.3 | 76.5 | 107 | 29.8 | 132 | 52.3 | 164 | 
C[C@]12O[C@H](C[C@]1(O)CO)n1c3ccccc3c3c4c(c5c6ccccc6n2c5c31)CNC4=O [Lestaurtinib] + C[C@@H](Oc1cc(-c2cnn(C3CCNCC3)c2)cnc1N)c1c(Cl)ccc(F)c1Cl [Crizotinib] (first compound 0.004 µM, partner dose 0.2 µM) | 67.7 | 122 | 96.3 | 61.9 | 126 | 88.6 | 120 |  | 214 | 75.6
Cc1ccc(Nc2nccc(N(C)c3ccc4c(C)n(C)nc4c3)n2)cc1S(N)(=O)=O [Pazopanib] + O=C(Oc1ccc([N+](=O)[O-])cc1)N1CCC(C(O)(c2ccc3c(c2)OCO3)c2ccc3c(c2)OCO3)CC1 [JZL184] (first compound 0.4 µM, partner dose 1 µM) |  | 79.1 | 135 | 59.5 | 78.4 | 140 | 290 | 24.1 | 286 | 
N.N.[Cl][Pt][Cl] [cisplatin] + Oc1cc(-c2nc(-c3ccccc3)[nH]c2-c2ccncc2)ccc1Cl [L779450] (first compound 1.6 µM, partner dose 0.2 µM) |  | 197 | 32.4 | 99.2 | 136 | 95.1 | 185 | 1130 | 216 | 
CC(=O)O[C@@]12CO[C@@H]1C[C@H](O)[C@@]1(C)C(=O)[C@H](O)C3=C(C)[C@@H](OC(=O)[C@H](O)[C@@H](NC(=O)OC(C)(C)C)c4ccccc4)C[C@@](O)([C@@H](OC(=O)c4ccccc4)[C@H]21)C3(C)C [Docetaxel] + C[As](C)SC[C@H](NC(=O)CC[C@H](N)C(=O)O)C(=O)NCC(=O)O [Darinaparsin] (first compound 0.0001 µM, partner dose 0.4 µM) | 75 | 553 | 284 | 289 | 669 | 264 | 213 |  | 121 | 146
Cc1nc(Nc2ncc(C(=O)Nc3c(C)cccc3Cl)s2)cc(N2CCN(CCO)CC2)n1 [dasatanib] + O=C(Oc1ccc([N+](=O)[O-])cc1)N1CCC(C(O)(c2ccc3c(c2)OCO3)c2ccc3c(c2)OCO3)CC1 [JZL184] (first compound 0.004 µM, partner dose 1 µM) | 143 | 262 | 162 | 220 | 31.1 | 252 | 46.4 |  | 98.5 | 
O=c1[nH]nc(Sc2ncc([N+](=O)[O-])s2)n1-c1ccc2c(c1)OCCO2 + C[C@]12O[C@H](C[C@]1(O)CO)n1c3ccccc3c3c4c(c5c6ccccc6n2c5c31)CNC4=O [Lestaurtinib] (first compound 0.2 µM, partner dose 0.004 µM) | 172 | 37.1 | 99 | 47.8 | 72.7 | 167 | 61.9 |  | 143 | 84.9
C[C@]12O[C@H](C[C@]1(O)CO)n1c3ccccc3c3c4c(c5c6ccccc6n2c5c31)CNC4=O [Lestaurtinib] + C[As](C)SC[C@H](NC(=O)CC[C@H](N)C(=O)O)C(=O)NCC(=O)O [Darinaparsin] (first compound 0.004 µM, partner dose 0.4 µM) | 40.5 | 90.1 | 141 | 105 | 60.2 | 335 | 42.8 |  | 196 | 141
C[C@]12O[C@H](C[C@]1(O)CO)n1c3ccccc3c3c4c(c5c6ccccc6n2c5c31)CNC4=O [Lestaurtinib] + Cn1c(Nc2ccc(C(F)(F)F)cc2)nc2cc(Oc3ccnc(-c4ncc(C(F)(F)F)[nH]4)c3)ccc21 [CHIR265] (first compound 0.004 µM, partner dose 0.08 µM) | 191 | 187 | 93.4 | 102 | 80.3 | 124 | 59.8 |  | 137 | 79.8
O=C(CCCCCCC(=O)Nc1ccccc1)NO [vorinostat] + O=C(Oc1ccc([N+](=O)[O-])cc1)N1CCC(C(O)(c2ccc3c(c2)OCO3)c2ccc3c(c2)OCO3)CC1 [JZL184] (first compound 0.08 µM, partner dose 1 µM) | 98.2 | 126 | 200 | 40.6 | 62 | 127 | 262 |  | 35.7 | 
C#Cc1cccc(Nc2ncnc3cc(OCCOC)c(OCCOC)cc23)c1 [erlotinib] + Cc1cc(SCc2sc(-c3ccc(C(F)(F)F)c(F)c3)nc2C)ccc1OCC(=O)O [GW0742] (first compound 0.8 µM, partner dose 2 µM) | 88.3 | 123 | 67.7 | 49.9 | 129 | 26.4 | 355 |  | 64.2 | 
C[C@]12O[C@H](C[C@]1(O)CO)n1c3ccccc3c3c4c(c5c6ccccc6n2c5c31)CNC4=O [Lestaurtinib] + Cc1nc(Nc2ncc(C(=O)Nc3c(C)cccc3Cl)s2)cc(N2CCN(CCO)CC2)n1 [dasatanib] (first compound 0.004 µM, partner dose 0.004 µM) | 125 | 141 | 100 | 90.1 | 97.4 | 246 | 58 |  | 131 | 41.8
COCC[n+]1c2c(n(Cc3cnccn3)c1C)C(=O)c1ccccc1C2=O + O=C(Oc1ccc([N+](=O)[O-])cc1)N1CCC(C(O)(c2ccc3c(c2)OCO3)c2ccc3c(c2)OCO3)CC1 [JZL184] (first compound 0.0004 µM, partner dose 1 µM) | 83.1 | 192 | 20.8 | 89.5 | 189 | 55.7 | 97 |  | 89.7 | 
Cc1cn(-c2cc(NC(=O)c3ccc(C)c(Nc4nccc(-c5cccnc5)n4)c3)cc(C(F)(F)F)c2)cn1 [nilotinib] + O=C(Oc1ccc([N+](=O)[O-])cc1)N1CCC(C(O)(c2ccc3c(c2)OCO3)c2ccc3c(c2)OCO3)CC1 [JZL184] (first compound 0.2 µM, partner dose 1 µM) |  | 20.6 | 34.2 | 118 | 126 | 117 | 84 | 137 | 68.6 | 
C[As](C)SC[C@H](NC(=O)CC[C@H](N)C(=O)O)C(=O)NCC(=O)O [Darinaparsin] + COc1ccc(Cl)c(Nc2nc3ccccc3nc2NS(=O)(=O)c2cccc(NC(=O)C(C)(C)N)c2)c1 [XL147] (first compound 0.4 µM, partner dose 0.8 µM) | 294 | 112 | 99.8 | 98 | 166 | 178 | 33.3 |  | 92.3 | 80.3

Single values from above:
For cleaved PARP positive nuclei fraction [7] [%], C[C@]12O[C@H](C[C@]1(O)CO)n1c3ccccc3c3c4c(c5c6ccccc6n2c5c31)CNC4=O [Lestaurtinib] + C[As](C)SC[C@H](NC(=O)CC[C@H](N)C(=O)O)C(=O)NCC(=O)O [Darinaparsin] (first compound 0.004 µM, partner dose 0.4 µM) has the entry 42.8
For cleaved PARP positive nuclei fraction [4] [%], C[C@]12O[C@H](C[C@]1(O)CO)n1c3ccccc3c3c4c(c5c6ccccc6n2c5c31)CNC4=O [Lestaurtinib] + Cc1nc(Nc2ncc(C(=O)Nc3c(C)cccc3Cl)s2)cc(N2CCN(CCO)CC2)n1 [dasatanib] (first compound 0.004 µM, partner dose 0.004 µM) has the entry 90.1
